Measurements taken from the supplement of paper PMC12542422.
Where a name gives a salt, the structure may show the parent alone. ± gives the standard deviation of the averaged measurements. The list shows a part of the results. These are raw signals, not scaled to a control.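 Ribosome-assembly readouts in HeLa cells were imaged via ENP1 staining, with or without export block, or inducible tagged ribosomal protein reporters. Machine learning classified per-cell signal location versus solvent (DMSO) controls. Hits surpassed the DMSO false-positive mean by five standard deviations and were visually confirmed; three biological replicates.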

test system: HeLa RPS2-YFP reporter; test: fraction of reporter-positive cells with nuclear (nucleolar or nucleolar/nucleoplasmic) RPS2-YFP (MainHitrate); higher = more cells with nucleolar/nuclear readout signal (for ENP1 -LMB: less RNAPI inhibition; for +LMB ENP1 and RP reporters: stronger nuclear/nucleolar retention, i.e. ribosome biogenesis defect); details: concentration: 1 µM; treatment time: 6 h

Row | Compound | fraction of reporter-positive cells with nuclear
1 | CC(NCCc1ccc(O)cc1)C(O)c1ccc(O)cc1 (stereo not given) [Ritodrine hydrochloride (Yutopar)] | 0.116 ± 0.1
2 | CC(=O)OCC(=O)[C@@]12N=C(C)O[C@@H]1C[C@H]1[C@@H]3CCC4=CC(=O)C=C[C@]4(C)[C@H]3[C@@H](O)C[C@@]12C [Deflazacort (Calcort)] | 0.124 ± 0.066
3 | CC1CCc2c(N3CCC(O)CC3)c(F)cc3c(=O)c(C(=O)O)cn1c23 (stereo not given) [Nadifloxacin] | 0.09 ± 0.1

test system: HeLa RPL29-GFP reporter; test: fraction of reporter-positive cells with nuclear (nucleolar or nucleolar/nucleoplasmic) RPL29-GFP (MainHitrate); higher = more cells with nucleolar/nuclear readout signal (for ENP1 -LMB: less RNAPI inhibition; for +LMB ENP1 and RP reporters: stronger nuclear/nucleolar retention, i.e. ribosome biogenesis defect); details: concentration: 1 µM; treatment time: 6 h

Row | Compound | fraction of reporter-positive cells with nuclear
4 | CN1Cc2c(N)cccc2C(c2ccccc2)C1 (stereo not given) [Nomifensine Maleate] | 0.299 ± 0.26
5 | COc1ccccc1OCC(O)COC(N)=O (stereo not given) [Methocarbamol (Robaxin)] | 0.239 ± 0.071
6 | CCCSc1ccc2[nH]c(NC(=O)OC)nc2c1 [Albendazole (Albenza)] | 0.262 ± 0.094
7 | CCCCCCCCCCCCCCCC[N+](C)(C)C [Cetrimonium Bromide] | 0.213 ± 0.049
8 | CCOc1nc2cccc(C(=O)O)c2n1Cc1ccc(-c2ccccc2-c2nnn[nH]2)cc1 [Candesartan (Atacand)] | 0.214 ± 0.071
9 | O=C(O)/C=C/c1ccc(Cn2ccnc2)cc1 [Ozagrel HCl] | 0.241 ± 0.089
10 | C=C(c1ccc(C(=O)O)cc1)c1cc2c(cc1C)C(C)(C)CCC2(C)C [Bexarotene] | 0.222 ± 0.071
11 | Cc1c(Nc2ncccc2C(=O)O)cccc1C(F)(F)F [Flunixin meglumin] | 0.231 ± 0.058
12 | Fc1ccc(C(c2ccc(F)cc2)N2CCN(C/C=C/c3ccccc3)CC2)cc1 [Flunarizine 2HCl] | 0.228 ± 0.063
13 | O=C1CCc2ccc(OCCCCN3CCN(c4cccc(Cl)c4Cl)CC3)cc2N1 [Aripiprazole (Abilify)] | 0.254 ± 0.11
14 | CCN[C@H]1C[C@H](C)S(=O)(=O)c2sc(S(N)(=O)=O)cc21 [Dorzolamide HCL] | 0.212 ± 0.055
15 | C/C(O)=C(\C#N)C(=O)Nc1ccc(C(F)(F)F)cc1 [Teriflunomide] | 0.259 ± 0.088
16 | C[N+](C)(C)CC(O)CC(=O)[O-] (racemic) [DL-Carnitine hydrochloride] | 0.216 ± 0.096
17 | O=C(C1CCCCC1)N1CC(=O)N2CCc3ccccc3C2C1 (stereo not given) [Praziquantel (Biltricide)] | 0.218 ± 0.058
18 | CC(C)(C)C(=O)OCOP(=O)(COCCn1cnc2c(N)ncnc21)OCOC(=O)C(C)(C)C [Adefovir Dipivoxil (Preveon, Hepsera)] | 0.149 ± 0.048
19 | Cc1onc(-c2c(Cl)cccc2Cl)c1C(=O)N[C@@H]1C(=O)N2[C@@H]1SC(C)(C)[C@@H]2C(=O)O [Dicloxacillin Sodium] | 0.247 ± 0.073

3 compounds out of the list, sorted by formula weight, falling.
Row | Compound | fraction of reporter-positive cells with nuclear
10 | C=C(c1ccc(C(=O)O)cc1)c1cc2c(cc1C)C(C)(C)CCC2(C)C [Bexarotene] | 0.222 ± 0.071
11 | Cc1c(Nc2ncccc2C(=O)O)cccc1C(F)(F)F [Flunixin meglumin] | 0.231 ± 0.058
6 | CCCSc1ccc2[nH]c(NC(=O)OC)nc2c1 [Albendazole (Albenza)] | 0.262 ± 0.094

(next part)

Row | Compound | fraction of reporter-positive cells with nuclear
20 | CN(C/C=C/C#CC(C)(C)C)Cc1cccc2ccccc12 [Terbinafine (Lamisil, Terbinex)] | 0.224 ± 0.073
21 | CC(C)/N=c1\cc2n(-c3ccc(Cl)cc3)c3ccccc3nc-2cc1Nc1ccc(Cl)cc1 [Clofazimine] | 0.224 ± 0.054
22 | Cc1noc(NS(=O)(=O)c2ccc(N)cc2)c1C [Sulfisoxazole] | 0.217 ± 0.1
23 | CN1C2=CC(=O)/C(=N\NC(N)=O)C=C2CC1S(=O)(=O)O (stereo not given) [Carbazochrome sodium sulfonate] | 0.218 ± 0.065
24 | CCCNC(C)C(=O)Nc1ccccc1C (stereo not given) [Prilocaine] | 0.207 ± 0.066
25 | CCN(CC)CCOc1ccc(C(=C(Cl)c2ccccc2)c2ccccc2)cc1 [Clomifene citrate (Serophene)] | 0.271 ± 0.078
26 | CN(C)[C@@H](CCOc1cccc2ccccc12)c1ccccc1 [Dapoxetine hydrochloride (Priligy)] | 0.219 ± 0.083
27 | CC=CC1=C(C(=O)O)N2C(=O)[C@@H](NC(=O)[C@H](N)c3ccc(O)cc3)[C@H]2SC1 [Cefprozil hydrate (Cefzil)] | 0.222 ± 0.077
28 | CCN[C@H]1CN(CCCOC)S(=O)(=O)c2sc(S(N)(=O)=O)cc21 [Brinzolamide] | 0.209 ± 0.075
29 | NC[C@H]1CC[C@H](C(=O)O)CC1 [Tranexamic acid (Transamin)] | 0.224 ± 0.058
30 | Clc1ccc(COC(Cn2ccnc2)c2ccc(Cl)cc2Cl)c(Cl)c1 (stereo not given) [Miconazole (Monistat)] | 0.223 ± 0.068
31 | C#C[C@]1(O)CC[C@H]2[C@@H]3CCc4cc(OC)ccc4[C@H]3CC[C@@]21C [Mestranol] | 0.227 ± 0.057
32 | Cc1c(C(=O)NN2CCCCC2)nn(-c2ccc(Cl)cc2Cl)c1-c1ccc(Cl)cc1 | 0.192 ± 0.025
33 | CN(Cc1cc(Br)cc(Br)c1N)C1CCCCC1 [Bromhexine HCl] | 0.188 ± 0.077
34 | Nc1ccc(C(=O)O)c(O)c1 [Aminosalicylate sodium] | 0.226 ± 0.039
35 | CC(=O)O[C@]1(C(C)=O)CC[C@H]2[C@@H]3C=C(C)C4=CC(=O)CC[C@]4(C)[C@H]3CC[C@@]21C [Megestrol Acetate] | 0.206 ± 0.073
